Experimental data taken from US20240398942A1, “USE OF ANTI-CD40 ANTIBODY” (CHIA TAI TIANQING PHARMACEUTICAL GROUP CO., LTD., priority 2021, published 2024).
No constants are given. Whether binding was seen depends on the method and setting. Some binding calls cover weakened binding; strength is not graded here.

Sequences of proteins named here, by UniProt entry; tags and fusion partners are left off. A change or cut given only in a name is not applied to a line headed by its entry. A line that says so, or that is headed by a name, gives the form on record, which may keep a tag or linker.
cynomolgus monkey CD40-his protein (Acro biosystems, Cat. No. CD0-C52H6) (G7PG38, form named): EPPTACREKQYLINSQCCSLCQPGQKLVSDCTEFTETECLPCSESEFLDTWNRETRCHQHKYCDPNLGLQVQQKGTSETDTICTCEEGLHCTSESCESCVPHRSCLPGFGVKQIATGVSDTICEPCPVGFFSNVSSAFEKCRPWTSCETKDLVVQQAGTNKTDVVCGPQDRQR

Target: cynomolgus monkey CD40-his protein (Acro biosystems, Cat. No. CD0-C52H6) (cynomolgus monkey) (UniProt G7PG38)
Experiment: SPR (Biacore)

Binder	binding
BM1 (dacetuzumab) (antibody, human IgG1, kappa, V domains shown) VH: EVQLVESGGGLVQPGGSLRLSCAASGYSFTGYYIHWVRQAPGKGLEWVARVIPNAGGTSYNQKFKGRFTLSVDNSKNTAYLQMNSLRAEDTAVYYCAREGIYWWGQGTLVTVSS VL: DIQMTQSPSSLSASVGDRVTITCRSSQSLVHSNGNTFLHWYQQKPGKAPKLLIYTVSNRFSGVPSRFSGSGSGTDFTLTISSLQPEDFATYFCSQTTHVPWTFGQGTKVEIKR	binds
chimeric antibody C1H1 (antibody, human IgG1, kappa, V domains shown) VH: EVKLVESGGGLVKPGASLKLSCAASGFTFSNYGISWVRQTSDKRLEWVASISSGGDNTYYPDNVKGRFTISRENAKNTLYLQMSSLKSEDTALYYCARAGEKAMDYWGQGTSVTVSS VL: DIVLTQSPVTLSVTPGDSVSLSCRASQTINNNLHWYQQKSHESPRLLIKYASQSISGIPSRFSGSGSGTDFTLSINSVETEDFGIYFCQQFSSWPLTFGAGTKLELKR	binds

The remaining lines, values ahead:

binding	Binder
binds	humanized antibody huC1H1-V1 (antibody, human IgG2, kappa, V domains shown) VH: EVQLVESGGGLVKPGGSLRLSCAASGFTFSNYGISWVRQAPGKGLEWVASISSGGDNTYYPDNVKGRFTISRDNAKNSLYLQMNSLRAEDTAVYYCARAGEKAMDYWGQGTLVTVSS VL: EIVLTQSPATLSLSPGERATLSCRASQTINNNLHWYQQKPGQAPRLLIKYASQSISGIPARFSGSGSGTDFTLTISSLEPEDFAVYFCQQFSSWPLTFGGGTKVEIKR
binds	humanized antibody huC1H1-V2 (antibody, human IgG2, kappa, V domains shown) VH: EVQLVESGGGLVKPGGSLRLSCAASGFTFSNYGISWVRQAPGKGLEWVSSISSGGDNTYYPDNVKGRFTISRDNAKNSLYLQMNSLRAEDTAVYYCARAGEKAMDYWGQGTLVTVSS VL: EIVLTQSPATLSLSPGERATLSCRASQTINNNLHWYQQKPGQAPRLLIKYASQSISGIPARFSGSGSGTDFTLTISSLEPEDFAVYFCQQFSSWPLTFGGGTKVEIKR
